Drawing on publication doi:10.1101/2023.02.07.527456, this text covers binding for one substance.

Chains of the proteins cited; added tags and fusions are not shown.
UniProt P47806: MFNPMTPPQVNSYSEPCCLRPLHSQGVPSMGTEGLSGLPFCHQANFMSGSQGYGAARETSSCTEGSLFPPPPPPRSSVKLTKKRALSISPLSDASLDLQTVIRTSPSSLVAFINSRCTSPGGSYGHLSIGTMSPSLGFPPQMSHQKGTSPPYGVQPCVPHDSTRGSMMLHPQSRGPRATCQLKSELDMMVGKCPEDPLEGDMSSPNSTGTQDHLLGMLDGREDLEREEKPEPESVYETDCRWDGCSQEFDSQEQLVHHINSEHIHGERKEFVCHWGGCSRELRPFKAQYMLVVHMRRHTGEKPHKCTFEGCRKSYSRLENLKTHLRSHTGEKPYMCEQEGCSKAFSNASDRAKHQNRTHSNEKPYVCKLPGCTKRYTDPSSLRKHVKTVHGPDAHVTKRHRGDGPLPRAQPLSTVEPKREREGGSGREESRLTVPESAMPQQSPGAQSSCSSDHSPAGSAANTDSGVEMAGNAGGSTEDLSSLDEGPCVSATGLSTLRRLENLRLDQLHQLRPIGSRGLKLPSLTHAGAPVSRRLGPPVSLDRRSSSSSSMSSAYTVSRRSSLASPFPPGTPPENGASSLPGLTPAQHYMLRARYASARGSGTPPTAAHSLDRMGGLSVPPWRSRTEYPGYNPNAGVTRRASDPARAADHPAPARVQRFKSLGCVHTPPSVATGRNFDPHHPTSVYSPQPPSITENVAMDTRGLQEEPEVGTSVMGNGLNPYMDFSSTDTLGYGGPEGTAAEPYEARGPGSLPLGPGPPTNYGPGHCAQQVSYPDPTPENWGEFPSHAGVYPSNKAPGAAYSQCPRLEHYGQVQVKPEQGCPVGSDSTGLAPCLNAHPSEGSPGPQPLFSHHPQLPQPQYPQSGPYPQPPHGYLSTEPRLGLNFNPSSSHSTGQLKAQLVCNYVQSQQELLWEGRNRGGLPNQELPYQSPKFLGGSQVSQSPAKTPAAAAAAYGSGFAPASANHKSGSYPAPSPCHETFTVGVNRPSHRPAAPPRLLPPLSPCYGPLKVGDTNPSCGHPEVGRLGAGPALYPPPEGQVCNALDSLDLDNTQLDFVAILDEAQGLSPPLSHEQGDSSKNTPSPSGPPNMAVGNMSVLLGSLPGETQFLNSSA
UniProt P13864: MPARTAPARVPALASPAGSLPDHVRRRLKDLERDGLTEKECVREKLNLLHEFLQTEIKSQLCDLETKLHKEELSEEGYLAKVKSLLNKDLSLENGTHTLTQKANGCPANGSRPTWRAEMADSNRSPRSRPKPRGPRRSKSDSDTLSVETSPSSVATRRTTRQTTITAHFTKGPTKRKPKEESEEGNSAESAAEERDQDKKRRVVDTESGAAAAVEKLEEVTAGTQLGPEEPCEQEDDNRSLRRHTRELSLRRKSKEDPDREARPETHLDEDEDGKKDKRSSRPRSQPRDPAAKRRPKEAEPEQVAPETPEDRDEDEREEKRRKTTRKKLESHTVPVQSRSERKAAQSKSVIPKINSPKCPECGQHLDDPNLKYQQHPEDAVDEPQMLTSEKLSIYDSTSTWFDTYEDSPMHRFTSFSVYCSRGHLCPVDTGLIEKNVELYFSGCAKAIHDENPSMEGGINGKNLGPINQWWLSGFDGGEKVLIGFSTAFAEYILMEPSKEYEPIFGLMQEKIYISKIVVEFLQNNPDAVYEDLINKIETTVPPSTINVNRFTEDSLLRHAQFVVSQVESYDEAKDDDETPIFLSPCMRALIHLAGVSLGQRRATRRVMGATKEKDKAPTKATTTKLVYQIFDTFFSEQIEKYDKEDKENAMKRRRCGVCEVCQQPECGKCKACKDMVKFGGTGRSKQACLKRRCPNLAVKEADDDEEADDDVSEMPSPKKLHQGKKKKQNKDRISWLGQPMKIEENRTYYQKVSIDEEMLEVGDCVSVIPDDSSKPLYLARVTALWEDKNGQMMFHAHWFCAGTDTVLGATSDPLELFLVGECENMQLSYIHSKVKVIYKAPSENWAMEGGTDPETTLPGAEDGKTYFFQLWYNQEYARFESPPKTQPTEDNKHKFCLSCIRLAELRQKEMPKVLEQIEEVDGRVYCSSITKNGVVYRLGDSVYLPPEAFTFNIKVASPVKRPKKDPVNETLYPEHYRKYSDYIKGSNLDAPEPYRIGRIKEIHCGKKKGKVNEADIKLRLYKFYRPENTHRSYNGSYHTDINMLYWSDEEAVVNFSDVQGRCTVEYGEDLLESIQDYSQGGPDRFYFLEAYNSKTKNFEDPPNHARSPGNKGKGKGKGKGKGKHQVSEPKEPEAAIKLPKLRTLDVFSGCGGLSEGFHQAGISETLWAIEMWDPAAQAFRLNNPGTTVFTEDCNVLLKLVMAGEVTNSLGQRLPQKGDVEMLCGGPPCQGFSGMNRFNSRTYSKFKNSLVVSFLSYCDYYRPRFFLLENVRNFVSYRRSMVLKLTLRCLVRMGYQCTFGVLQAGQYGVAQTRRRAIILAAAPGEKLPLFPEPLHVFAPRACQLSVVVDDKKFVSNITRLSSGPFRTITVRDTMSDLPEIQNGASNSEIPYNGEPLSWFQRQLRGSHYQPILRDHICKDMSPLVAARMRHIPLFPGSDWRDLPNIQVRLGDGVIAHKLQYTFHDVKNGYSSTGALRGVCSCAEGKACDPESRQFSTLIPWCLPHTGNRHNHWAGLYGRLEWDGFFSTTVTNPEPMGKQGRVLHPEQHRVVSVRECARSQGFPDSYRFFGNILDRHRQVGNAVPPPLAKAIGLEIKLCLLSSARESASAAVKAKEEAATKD

These are yes or no findings as the source states them, for the method shown. In cells and extracts the contact can be indirect. Some binding calls cover weakened binding; strength is not graded here.

The test addresses Glioma-associated oncogene homolog 1 (mouse (endogenous in murine BMMs or RAW264.7 cells)) (UniProt P47806). Kind of test: co-IP.

Turning to “DNA methyltransferase 1 (from UniProt P13864 1-1620) (enzyme)”, the binding entry is reported as “binds”.
